Results: PubChem BioAssay AID1347076 (National Center for Advancing Translational Sciences (NCATS), 2019)
Out of some 400,000 compounds screened, about 13,000 (3.2%) were called active. Inconclusive results, whose numbers are uncertain, are shown with a selection of clear calls. Calls follow the shape of the dose curve; as a rule, active = well fitted cell-killing curve with a large enough effect; inconclusive = small, poorly fitted or top-dose-only effect, or effect the other way; inactive = flat fitted curve, though single readings scatter. Where the call is inconclusive, the potency comes from a doubtful curve fit. Where a structure was tested more than once in an assay, its records may differ in their call.
% is scaled to controls: 0 for no effect and ±100 for the full control effect; potency is read from the fitted curve at half-maximal effect.

Experiment: qHTS assay for MDR1-selective chemotherapeutics: Primary screen using the drug-selected MDR subline cells KB-V1; also: nearly all actives have a fitted effect of over 60% in size
Details: KB-V1 MDR cells viability, CellTiter-Glo, 72 h; activity change, negative = cytotoxicity: at 46.1 µM (top of the series)
Procedure, shortened: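 Readout: CellTiter-Glo luminescence, 10 min after addition. Cells: KB-V1 MDR subline, 72 h at 37 degrees C with compound. Analysis: corrected, normalized data fitted to concentration-effect curves.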
With `O=S(=O)(c1ccccc1)c1nnn2c1nc(NC1CCCCC1)c1sccc12` the Potency was “inactive”.
In the case of `CNC(=O)C1CCC(Cn2c(=O)c3sccc3n(CC(=O)Nc3ccc(C)c(C)c3)c2=O)CC1` (centres undefined), the Potency was inconclusive: 6.51 µM [rising, partial curve, poor fit].
For `CC(NC(=O)c1c(N)[nH]c(C(=O)c2ccccc2)c1-c1ccccc1Br)c1cccc2ccccc12` (centres undefined), the Potency was inconclusive: 29.1 µM [cytotoxic, single point].
With `COc1ccc(OC)c(NC(=O)c2cccnc2)c1` the Potency was inconclusive: 8.2 µM [rising, partial curve, poor fit].
For `C=CCN1C(=O)c2ccc(C(=O)N(C)CC(=O)Nc3cccc(F)c3)cc2C1=O`, the Potency was “inactive”.
With `CN(Cc1cccnc1)C(=O)c1cc(S(=O)(=O)Nc2ccccc2F)ccc1Cl` the Potency was “inactive”.
For `C/C(=N/NC(=O)c1cccc(C)c1)c1c(O)cc(C)oc1=O`, the Potency was inconclusive: 16.4 µM [cytotoxic, partial curve].
For `CN(C)CC/C=C1/c2ccccc2Sc2c(O)cc(Cl)cc21`, the Potency was active: 14.6 µM.
In the case of `COc1cccc(CN(CCC(C)C)S(=O)(=O)c2cc(Br)ccc2Br)c1`, the Potency was inconclusive: 25.9 µM [cytotoxic, single point].
In the case of `COc1ccccc1CNC(=O)C(=O)NCC1OCCN1S(=O)(=O)c1ccc(Br)cc1` (centres undefined), the Potency was inconclusive: 8.2 µM [cytotoxic, partial curve].
With `CCCNC(=O)C[C@@H]1C[C@@H]2c3cc(NS(=O)(=O)c4ccc(OC)cc4)ccc3O[C@@H]2[C@@H](CO)O1` the Potency was inconclusive: 0.0073 µM [cytotoxic, full curve, poor fit].
In the case of `CCN(CC1COc2ccccc2O1)S(=O)(=O)c1ccc(C)cc1` (centres undefined), the Potency was active: 23.1 µM.
In the case of `Cc1ccc(-c2noc(CCC(=O)NC3CC3)n2)cc1`, the Potency was “inactive”.
With `CC1=Nc2cc(C(=O)NCCCOC(C)C)ccc2Sc2ccccc21` the Potency was inconclusive: 29.1 µM [cytotoxic, single point].
For `Cc1ccc(OCCCn2cc(C#N)c3ccccc32)cc1`, the Potency was active: 16.4 µM.
For `O=C(NCc1nc2ccccc2[nH]1)C1=C[C@@H](c2ccc(Br)cc2)C[C@@H](OCCCCO)O1`, the Potency was inconclusive: 11.6 µM [cytotoxic, partial curve, poor fit].
In the case of `COc1cc(NC(=O)CN2c3ccccc3S(=O)(=O)c3ccccc32)cc(OC)c1`, the Potency was “inactive”.
In the case of `CCS(=O)(=O)c1nn2c(N)c(/C=C3/C=CC(=O)C(OC)=C3)c(=O)nc2s1`, the Potency was inconclusive: 29.1 µM [rising, single point].
In the case of `O=C(Nc1ncccn1)c1cc([N+](=O)[O-])cc([N+](=O)[O-])c1`, the Potency was “inactive”.
For `O=C1CC(NNc2ccccc2)C(=O)N1c1ccc(N2CCCCC2)cc1` (centres undefined), the Potency was “inactive”.
With `Cc1cc(C)n(-c2nc(SCC(=O)O)c3c4c(sc3n2)COC(C)(C)C4)n1` the activity change, negative = cytotoxicity was inconclusive: -32.1% [cytotoxic].
In the case of `Cc1cc2c(cc1C)C(c1cccc([N+](=O)[O-])c1)CC(=O)N2` (centres undefined), the Potency was inconclusive: 16.4 µM [cytotoxic, single point].
For `CC(C)CN(C(=O)COC(=O)c1cccs1)c1c(N)n(Cc2ccccc2)c(=O)[nH]c1=O`, the Potency was “inactive”.
With `CCOC(=O)N1CCN(C(=O)C2CCC(=O)N(Cc3cccc(C(F)(F)F)c3)C2)CC1` (centres undefined) the Potency was “inactive”.
In the case of `COc1ccc2nc(NCc3ccccc3)[nH]c2c1`, the Potency was inconclusive: 13 µM [cytotoxic, partial curve, poor fit].
With `CCOc1c(C)cc(-c2ncccc2O)cc1C` the Potency was active: 13 µM.
For `Cc1ccccc1CNc1ccc(C(CC(N)=O)NC(=O)c2ccccc2)cc1[N+](=O)[O-]` (centres undefined), the Potency was “inactive”.
In the case of `CC1CCN(S(=O)(=O)c2ccc(C(=O)N3CCN(c4ccccc4F)CC3)cc2)CC1`, the Potency was inconclusive: 0.366 µM [rising, full curve].
In the case of `Cn1nc(C(=O)OCc2ccc(F)cc2)c2ccccc2c1=O`, the Potency was inconclusive: 29.1 µM [cytotoxic, single point].
In the case of `CCOCCCn1c(SCC(=O)OCC)nc2c(sc3ccccc32)c1=O`, the Potency was inconclusive: 29.1 µM [cytotoxic, single point].
In the case of `O=C(Nc1ccn(Cc2ccc(F)cc2)n1)c1ccncc1`, the Potency was inconclusive: 16.4 µM [cytotoxic, partial curve, poor fit].
In the case of `OC(CN=c1sc2ccccc2n1CC(O)COc1ccccc1)COc1ccccc1` (centres undefined), the Potency was inconclusive: 23.1 µM [cytotoxic, single point].
With `CC(=O)c1ccc(NC(=O)c2ccc3c(c2)C(=O)N(c2ccccn2)C3=O)cc1` the Potency was inconclusive: 3.66 µM [rising, full curve, poor fit].
In the case of `Cc1ccc(C2CC(c3cccs3)=NN2S(=O)(=O)c2ccc(C)cc2)cc1` (centres undefined), the Potency was inconclusive: 5.8 µM [cytotoxic, full curve].
For `Cc1cccc(C(C)C)c1NC(=O)C1CCCN1S(=O)(=O)c1cccc2nsnc12` (centres undefined), the Potency was inconclusive: 2.91 µM [cytotoxic, full curve, poor fit].
For `CCNC(=O)CSc1nc2ccccc2c(=O)n1-c1cccc(OC)c1`, the Potency was inconclusive: 23.1 µM [cytotoxic, single point].
With `S=c1[nH]nc(-c2ccco2)n1/N=C/c1cccc(Cl)c1Cl` the Potency was inconclusive: 11.6 µM [cytotoxic, partial curve].
With `Cc1ccc(C(=O)CSc2nc(-c3ccccc3)nc3c2CCCC3)c(C)c1` the Potency was “inactive”.
For `CCn1ccc(-c2ccccc2)c(C#N)c1=O`, the Potency was inconclusive: 5.8 µM [cytotoxic, full curve].
For `CC(=O)c1c(C)nn(CC(O)COc2ccc3c(c2)CCC3)c1C` (centres undefined), the Potency was active: 10.3 µM.
With `CCc1ccc(/C=N/NC(=O)c2cc(-c3cccc([N+](=O)[O-])c3)n[nH]2)cc1` the Potency was inconclusive: 14.6 µM [cytotoxic, single point].
For `O=C(O)c1ccc(-n2nnnc2SCc2cccc(Br)c2)cc1`, the Potency was inconclusive: 16.4 µM [rising, single point].
In the case of `CCCNS(=O)(=O)c1ccc(-n2cnnn2)c(OC)c1`, the Potency was inconclusive: 32.6 µM [rising, single point].
With `COCCCn1c(SCC(=O)OC2CCCCC2)nnc1-c1cccs1` the Potency was inconclusive: 11.6 µM [cytotoxic, partial curve].
